# Results published in patent US11427783B2, “Perfuming compositions” (Firmenich SA, priority 2016, dated 2022).
# Structures can show the parent of a compound that is named as a salt.
# Assay: Odor threshold of perfuming compounds in air
# [1] = Table 6, perfuming compounds having a fruity note
# [2] = Table 8, perfuming compounds having a sweet note
# [3] = Table 9, perfuming compounds having a gourmand note
# [4] = Table 10, perfuming compounds having a woody note
# [5] = perfuming compounds having a fruity note (Table 6)
# [6] = Table 5, perfuming compounds having a green note
smiles,measurement,setting,value
CC(C)C(=O)OCCc1ccccc1 [2-PHENYLETHYL ISOBUTYRATE],Odor Threshold (μg/l air),[1],6.70E−03 μg/l air
same,Odor Threshold (μg/l air),[2],6.70E−03 μg/l air
same,Odor Threshold (μg/l air),[3],6.70E−03 μg/l air
CC1C(C)(C)C2=C(C(=O)CCC2)C1(C)C (stereo not shown),Odor Threshold (μg/l air),[4],4.57E−03 μg/l air
CCCCCCCOC(C)=O [heptyl acetate],Odor Threshold,[5],1.32E−01 μg/l air
CCC(O)COC1CCCCC1C(C)(C)C (racemic),Odor Threshold (μg/l air),[4],3.53E−02 μg/l air
COC(=O)/C=C/c1ccccc1 [METHYL (E)-3-PHENYL-2-PROPENOATE],Odor Threshold (μg/l air),[1],3.13E−03 μg/l air
CC1CC(C)(C)OC(Cc2ccccc2)O1 (stereo not shown),Odor Threshold,[6],5.26E−02 μg/l air
C=C1CCCC(C)(C)C1C(=O)OC (racemic),Odor Threshold,[5],5.78E−04 μg/l air
C=CC(O)CCCCC (racemic) [(+−)-1-octen-3-ol],Odor Threshold,[6],1.77E−03 μg/l air
CC(=O)CCc1ccc(O)cc1 [4-(4-HYDROXY-1-PHENYL)-2-BUTANONE],Odor Threshold (μg/l air),[1],2.05E−07 μg/l air
CC1CCC2C(C)(C)C3CC12CCC3(C)O (racemic),Odor Threshold (μg/l air),[4],3.38E−02 μg/l air
CC(=O)CCc1ccccc1 [4-PHENYL-2-BUTANONE],Odor Threshold,[6],2.22E−04 μg/l air
same,Odor Threshold,[5],2.22E−04 μg/l air
CCCC=C1OC(=O)c2ccccc21 [3-BUTYLIDENE-1-BENZO[C]FURANONE],Odor Threshold (μg/l air),[2],8.65E−04 μg/l air
same,Odor Threshold (μg/l air),[3],8.65E−04 μg/l air
CCCCCCCCC=O [nonanal],Odor Threshold,[6],8.14E−03 μg/l air
CCOC(=O)/C=C/c1ccccc1 [ETHYL (E)-3-PHENYL-2-PROPENOATE],Odor Threshold (μg/l air),[1],2.38E−05 μg/l air
CCOC(=O)Cc1ccccc1 [ETHYL PHENYLACETATE],Odor Threshold,[5],4.19E−04 μg/l air
O=COCc1ccccc1 [BENZYL FORMATE],Odor Threshold,[6],3.23E−01 μg/l air
CC(=O)OCCC1CCCCC1 [2-CYCLOHEXYLETHYL ACETATE],Odor Threshold (μg/l air),[2],4.49E−02 μg/l air
same,Odor Threshold (μg/l air),[3],4.49E−02 μg/l air
CCCC(=O)OCC [ETHYL BUTANOATE],Odor Threshold,[6],3.68E−04 μg/l air
same,Odor Threshold,[5],3.68E−04 μg/l air
C/C=C(\C)C(=O)OCCCCCC [hexyl (2E)-2-methyl-2-butenoate],Odor Threshold,[6],1.16E−02 μg/l air
same,Odor Threshold (μg/l air),[2],1.16E−02 μg/l air
same,Odor Threshold,[5],1.16E−02 μg/l air
"CCOC(=O)/C(C)=C/C(C)C [ethyl (2E)-2,4-dimethyl-2-pentenoate]",Odor Threshold,[5],9.55E−03 μg/l air
"CC(=O)OC(C)CCC=C(C)CCC=C(C)C (stereo not shown) [1,5,9-TRIMETHYL-4,8-DECADIENYL ACETATE]",Odor Threshold (μg/l air),[1],3.28E−04 μg/l air
C=C(C)[C@@H]1CC=C(CO)CC1,Odor Threshold,[6],2.07E−02 μg/l air
CC1COCc2cc3c(cc21)C(C)(C)C(C)C3(C)C (racemic),Odor Threshold (μg/l air),[1],2.62E−04 μg/l air
COc1ccc(CCC(C)=O)cc1 [4-(4-METHOXYPHENYL)-2-BUTANONE],Odor Threshold (μg/l air),[1],5.88E−06 μg/l air
same,Odor Threshold (μg/l air),[2],5.88E−06 μg/l air
same,Odor Threshold (μg/l air),[3],5.88E−06 μg/l air
COc1cc(C=O)ccc1O [4-hydroxy-3-methoxybenzaldehyde],Odor Threshold (μg/l air),[2],6.75E−06 μg/l air
same,Odor Threshold (μg/l air),[3],6.75E−06 μg/l air
CCC(=O)/C=C/C1=C(C)CCCC1(C)C,Odor Threshold (μg/l air),[2],1.16E−04 μg/l air
same,Odor Threshold (μg/l air),[3],1.16E−04 μg/l air
COC(=O)OC1CC/C=C\CCC1 (racemic),Odor Threshold,[6],3.69E−04 μg/l air
C=CCOC(=O)COc1ccccc1 [ALLYL PHENOXYACETATE],Odor Threshold,[6],1.22E−03 μg/l air
same,Odor Threshold (μg/l air),[1],1.22E−03 μg/l air
CCOC(=O)C1=C(C)C=CCC1(C)C,Odor Threshold,[5],4.40E−03 μg/l air
CCCCCCOC(=O)c1ccccc1O [HEXYL 2-HYDROXYBENZOATE],Odor Threshold,[6],5.50E−03 μg/l air
same,Odor Threshold (μg/l air),[1],5.50E−03 μg/l air
CC(=O)OCC=C(C)CCC=C(C)C (mixture of isomers) [GERANYL ACETATE (A) + NERYL ACETATE (B)],Odor Threshold,[6],3.57E−02 μg/l air
CC(=O)c1ccccc1 [1-phenylethanone],Odor Threshold (μg/l air),[2],6.61E−03 μg/l air
CCCC1CCC(O)C(OC)C1 (stereo not shown) [2-METHOXY-4-PROPYL-1-CYCLOHEXANOL],Odor Threshold,[6],2.85E−02 μg/l air
CCCC(O)CC[C@@H]1[C@@H](C)CCCC1(C)C (mixture of isomers),Odor Threshold (μg/l air),[4],5.92E−04 μg/l air
COC(C)(C)CCCC(C)C(C)O (racemic),Odor Threshold (μg/l air),[4],2.66E−02 μg/l air
CC1(C)CC=C(CCC=O)CC1,Odor Threshold,[6],2.06E−03 μg/l air
"C=C(C)C1CC=C(C)CC1 (single isomer, unassigned; (+)) [(+)-LIMONENE]",Odor Threshold,[5],1.29E−01 μg/l air
CCCCC/C=C\CCC=O [(Z)-4-DECENAL],Odor Threshold,[6],3.78E−05 μg/l air
CCCC(C)C(=O)OCC (racemic) [(+−)-ETHYL 2-METHYLPENTANOATE],Odor Threshold,[6],3.84E−05 μg/l air
same,Odor Threshold,[5],3.84E−05 μg/l air
N#CC(=C1CCCCC1)c1ccccc1 [CYCLOHEXYLIDENE(PHENYL)ACETONITRILE],Odor Threshold,[6],3.31E−04 μg/l air
CC1(C)C2C[C@H]3CCC(=O)C=C3[C@@H]1C2,Odor Threshold (μg/l air),[4],2.86E−05 μg/l air
"C=CC(C)(CCC=C(C)C)OC(C)=O (racemic) [(+−)-1,5-DIMETHYL-1-VINYL-4-HEXENYL ACETATE]",Odor Threshold,[6],7.40E−02 μg/l air
same,Odor Threshold,[5],7.40E−02 μg/l air
"CC(=O)OC/C=C(\C)CCC=C(C)C [(E)-3,7-DIMETHYL-2,6-OCTADIENYL ACETATE]",Odor Threshold,[6],3.57E−02 μg/l air
same,Odor Threshold (μg/l air),[1],3.57E−02 μg/l air
CCCCCC1(C)CCC(C)(C)C1=O (racemic),Odor Threshold,[5],3.25E−02 μg/l air
CCCCCC(=O)O [HEXANOIC ACID],Odor Threshold,[6],1.82E−02 μg/l air
same,Odor Threshold (μg/l air),[2],1.82E−02 μg/l air
same,Odor Threshold (μg/l air),[3],1.82E−02 μg/l air
CC1CCC2(O1)C(C)(C)CCCC2(C)O (racemic),Odor Threshold (μg/l air),[4],5.15E−04 μg/l air
"C=CCCC(=O)C1=CCCC(C)(C)C1 [1-(5,5-dimethyl-1-cyclohexen-1-yl)-4-penten-1-one]",Odor Threshold,[6],1.64E−06 μg/l air
same,Odor Threshold (μg/l air),[1],1.64E−06 μg/l air
CCCCCCCC(=O)OCC [ethyl octanoate],Odor Threshold,[6],5.30E−03 μg/l air
CCC(C)(O)CCCC(C)C (racemic),Odor Threshold,[6],3.45E−03 μg/l air
CCCCCCC(=O)OCC [ethyl heptanoate],Odor Threshold,[5],7.17E−03 μg/l air
CCCCCC/C=C/C(=O)OC [methyl (2E)-2-nonenoate],Odor Threshold,[6],5.84E−02 μg/l air
same,Odor Threshold,[5],5.84E−02 μg/l air
CCCCCCC(C)=O [2-OCTANONE],Odor Threshold,[5],5.37E−02 μg/l air
CCCCCC=O [hexanal],Odor Threshold,[6],1.76E−03 μg/l air
CC(C)Cc1ccc2ccccc2n1 [2-ISOBUTYLQUINOLINE],Odor Threshold (μg/l air),[2],1.93E−04 μg/l air
O=C(Cc1ccccc1)OCCc1ccccc1 [2-PHENYLETHYL PHENYLACETATE],Odor Threshold (μg/l air),[1],9.08E−04 μg/l air
same,Odor Threshold (μg/l air),[2],9.08E−04 μg/l air
same,Odor Threshold (μg/l air),[3],9.08E−04 μg/l air
N#C/C=C/c1ccccc1 [(E)-3-PHENYL-2-PROPENENITRILE],Odor Threshold (μg/l air),[4],8.97E−05 μg/l air
